# Results as given in patent publication US20220380766.
# Chains of the proteins cited; added tags and fusions are not shown. Residues count along the entry.
# UniProt P30530, 26-894: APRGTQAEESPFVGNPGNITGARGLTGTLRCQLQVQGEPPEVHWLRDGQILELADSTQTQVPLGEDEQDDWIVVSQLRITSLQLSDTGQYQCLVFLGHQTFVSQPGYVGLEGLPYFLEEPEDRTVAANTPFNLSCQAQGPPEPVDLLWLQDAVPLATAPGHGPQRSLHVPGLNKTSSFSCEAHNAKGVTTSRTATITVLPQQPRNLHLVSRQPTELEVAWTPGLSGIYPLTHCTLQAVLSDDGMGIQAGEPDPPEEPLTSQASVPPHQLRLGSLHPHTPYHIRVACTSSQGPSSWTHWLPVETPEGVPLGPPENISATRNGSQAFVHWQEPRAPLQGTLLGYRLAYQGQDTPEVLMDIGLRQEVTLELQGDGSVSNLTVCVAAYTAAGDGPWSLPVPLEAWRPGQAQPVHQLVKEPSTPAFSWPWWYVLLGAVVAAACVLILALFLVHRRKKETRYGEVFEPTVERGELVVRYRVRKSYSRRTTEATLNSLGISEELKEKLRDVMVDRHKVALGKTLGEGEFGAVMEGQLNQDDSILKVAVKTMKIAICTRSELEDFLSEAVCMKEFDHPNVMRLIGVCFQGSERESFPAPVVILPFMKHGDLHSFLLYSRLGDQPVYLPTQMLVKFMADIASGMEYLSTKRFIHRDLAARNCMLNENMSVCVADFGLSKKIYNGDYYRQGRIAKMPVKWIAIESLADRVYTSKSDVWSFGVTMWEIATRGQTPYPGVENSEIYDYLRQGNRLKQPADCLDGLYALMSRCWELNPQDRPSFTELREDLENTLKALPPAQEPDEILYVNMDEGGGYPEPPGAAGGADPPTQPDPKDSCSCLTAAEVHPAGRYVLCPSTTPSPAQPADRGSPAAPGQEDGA
# For at least one entry, the source does not settle the construct or the ends of the probe. The comparison behind a weaker result is the experiment's own reference, which may not be listed here.
# Target: AXL receptor tyrosine kinase (UniProt P30530)
# Assay: activity in cells
# Settings: 2'-F pyrimidines, protein in cells, protein details: endogenous AXL in human ovarian cancer cell lines, dose not given here
sequence,measurement,setting,value
AUGAUCAAUCGCCUCAAUUCGACGGAGGCUCAC [GL21.T],functional effect of the aptamer,less p-AXL reduction than GLB-G25 and GLB-A04 in SKOV3.ip1 with Gas6,less active
ATGATCAATCGCCTCAATTCGACAGGAGGCTCAC [GLB-G25 PEG],functional effect of the aptamer,"phosphorodithioate (PS2) at position 25, PEG, reduces p-AXL in SKOV3.ip1 tumor tissue in mice, alone or with paclitaxel, single-stranded DNA, variant of GLB-G25",active
ATGATCAATCGCCTCAATTCGACGGAGGCTCAC [GLD-1],functional effect of the aptamer,"monothiophosphate, less p-AXL reduction than GLB-G25 and GLB-A04 in SKOV3.ip1 with Gas6, single-stranded DNA, variant of GL21.T",less active
ATGATCAATCGCCTCAATTCGACAGGAGGCTCAC [GLB-A04 PEG],functional effect of the aptamer,"phosphorodithioate (PS2) at position 4, PEG, reduces p-AXL in SKOV3.ip1 tumor tissue in mice, alone or with paclitaxel, single-stranded DNA, variant of GLB-A04",active
